PubChem BioAssay AID504764 | Drosophila RNAi Screening Center – 2011

Test: 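Genes whose knock-down alters Notch-dependent transcription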 (primary screen)
System: Drosophila Kc167 cells
Reagent: long dsRNA against Drosophila genes
Duration: about 5 days (4 days dsRNA, then 24 h after transfection)
Treatment: transfection of constitutively active membrane-tethered Notch lacking the extracellular domain, read 24 h later
Read-out: 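Light from a Notch-responsive E(spl)m3 luciferase reporter under active Notch, with control-promoter and no-Notch reporter wells to normalise; raw counts from paired wells a and b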
Direction: induced reporter light, run 1, well a and induced reporter light, run 1, well b: higher = more light from the Notch target reporter with active Notch; control promoter light, run 1, well a and control promoter light, run 1, well b: higher = more light from the viral control promoter (cell number, transfection, viability); uninduced reporter light, run 1, well a: higher = more light from the Notch target reporter without active Notch
Hit rule: 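Hit if the duplicate-averaged log2 ratio of induced to control-promoter light gives a plate-wise z beyond ±2, or induced to uninduced beyond ±1.8; weak-control or discordant-duplicate wells dropped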
Calls: active = modifier hit (raised or lowered Notch signal); inactive = not a hit
In all, the deposit lists about 22,000 reagents; below is an unselected part of those that have a named target and a result. In the full data, 403 (1.9%) got an active call. 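Unnormalised raw counts per well; ratio z-scores behind the hit calls and whether each hit raises or lowers signal are not deposited.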 The numbers tell different reagents against one gene apart. The record does not give: the amount of reagent.

CG18557 showed induced reporter light, run 1, well a = 1.51e5; induced reporter light, run 1, well b = 1.02e5; control promoter light, run 1, well a = 1.09e5; control promoter light, run 1, well b = 85045; uninduced reporter light, run 1, well a = 8850; inactive.
With knock-down of CG34283 the results were induced reporter light, run 1, well a = 2.22e5; induced reporter light, run 1, well b = 1.98e5; control promoter light, run 1, well a = 3.11e5; control promoter light, run 1, well b = 3.26e5; uninduced reporter light, run 1, well a = 13655; inactive.
With knock-down of wwk (white walker), the screen gave induced reporter light, run 1, well a = 1.56e5; induced reporter light, run 1, well b = 1.73e5; control promoter light, run 1, well a = 1.73e5; control promoter light, run 1, well b = 1.74e5; uninduced reporter light, run 1, well a = 17860; inactive.
Depletion of CG33017 #1 resulted in: induced reporter light, run 1, well a = 1.42e5; induced reporter light, run 1, well b = 1.12e5; control promoter light, run 1, well a = 1.60e5; control promoter light, run 1, well b = 1.19e5; uninduced reporter light, run 1, well a = 12145; inactive.
Against CG33017 #2 the deposit lists induced reporter light, run 1, well a = 97110; induced reporter light, run 1, well b = 83100; control promoter light, run 1, well a = 93975; control promoter light, run 1, well b = 96260; uninduced reporter light, run 1, well a = 6685; inactive.
With knock-down of CG11052 the results were induced reporter light, run 1, well a = 47265; induced reporter light, run 1, well b = 55660; control promoter light, run 1, well a = 66495; control promoter light, run 1, well b = 46830; uninduced reporter light, run 1, well a = 4255; inactive.
Against CG12057, the values are induced reporter light, run 1, well a = 1.00e5; induced reporter light, run 1, well b = 93290; control promoter light, run 1, well a = 1.37e5; control promoter light, run 1, well b = 1.38e5; uninduced reporter light, run 1, well a = 6785; inactive.

2 entries from above in another layout:
{"Target gene":"CG33017","reagent no.":1,"induced reporter light, run 1, well a":1.42e5,"induced reporter light, run 1, well b":1.12e5,"control promoter light, run 1, well a":1.60e5,"control promoter light, run 1, well b":1.19e5,"uninduced reporter light, run 1, well a":12145,"Call":"inactive"}
{"Target gene":"CG33017","reagent no.":2,"induced reporter light, run 1, well a":97110,"induced reporter light, run 1, well b":83100,"control promoter light, run 1, well a":93975,"control promoter light, run 1, well b":96260,"uninduced reporter light, run 1, well a":6685,"Call":"inactive"}

Additional entries:
Against rib (ribbon) the deposit lists induced reporter light, run 1, well a = 89325; induced reporter light, run 1, well b = 95130; control promoter light, run 1, well a = 1.84e5; control promoter light, run 1, well b = 1.63e5; uninduced reporter light, run 1, well a = 7870; inactive.
SH3PX1 (SH3 and PX domain containing 1) scored induced reporter light, run 1, well a = 1.48e5; induced reporter light, run 1, well b = 1.27e5; control promoter light, run 1, well a = 1.39e5; control promoter light, run 1, well b = 1.97e5; uninduced reporter light, run 1, well a = 9435; inactive.
Knock-down of pita #1 came out at: induced reporter light, run 1, well a = 1.56e5; induced reporter light, run 1, well b = 1.91e5; control promoter light, run 1, well a = 2.79e5; control promoter light, run 1, well b = 3.24e5; uninduced reporter light, run 1, well a = 12500; inactive.
Silencing of pita #2 gave: induced reporter light, run 1, well a = 2.40e5; induced reporter light, run 1, well b = 2.13e5; control promoter light, run 1, well a = 1.83e5; control promoter light, run 1, well b = 1.81e5; uninduced reporter light, run 1, well a = 15540; inactive.
For phr6-4 ((6-4)-photolyase), the values are induced reporter light, run 1, well a = 37225; induced reporter light, run 1, well b = 39645; control promoter light, run 1, well a = 58590; control promoter light, run 1, well b = 40910; uninduced reporter light, run 1, well a = 3540; inactive.
Veneno gave induced reporter light, run 1, well a = 63365; induced reporter light, run 1, well b = 69050; control promoter light, run 1, well a = 68720; control promoter light, run 1, well b = 49150; uninduced reporter light, run 1, well a = 4260; inactive.
After knock-down of Phlpp (PH domain leucine-rich repeat protein phosphatase), the record shows induced reporter light, run 1, well a = 44235; induced reporter light, run 1, well b = 36790; control promoter light, run 1, well a = 42445; control promoter light, run 1, well b = 35400; uninduced reporter light, run 1, well a = 1685; inactive.
With knock-down of CG12640 the results were induced reporter light, run 1, well a = 1.29e5; induced reporter light, run 1, well b = 99095; control promoter light, run 1, well a = 1.72e5; control promoter light, run 1, well b = 2.12e5; uninduced reporter light, run 1, well a = 8735; inactive.
CG33095 gave induced reporter light, run 1, well a = 1.44e5; induced reporter light, run 1, well b = 1.49e5; control promoter light, run 1, well a = 2.04e5; control promoter light, run 1, well b = 1.94e5; uninduced reporter light, run 1, well a = 14490; inactive.
CG11693 gave induced reporter light, run 1, well a = 95715; induced reporter light, run 1, well b = 1.06e5; control promoter light, run 1, well a = 85225; control promoter light, run 1, well b = 82655; uninduced reporter light, run 1, well a = 7445; inactive.
After knock-down of CG11162, the record shows induced reporter light, run 1, well a = 68920; induced reporter light, run 1, well b = 79985; control promoter light, run 1, well a = 87955; control promoter light, run 1, well b = 77190; uninduced reporter light, run 1, well a = 5042; inactive.
